Data as given in PubChem BioAssay AID652243 (Drosophila RNAi Screening Center, 2013)

Aim: 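Fly genes required for human androgen receptor driven transcription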 (primary screen)
System: Drosophila S2R+ cells
Knock-down reagent: long dsRNA against Drosophila genes
Time to read-out: 72 h (48 h, then 24 h hormone)
Challenge: synthetic androgen R1881 at 10 nM for 24 h
Detection: 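Firefly light from an androgen-responsive reporter and Renilla control light per well, raw and unnormalised, for each of two replicates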
Reading the numbers: firefly reporter light: higher = more light from androgen-responsive reporter; Renilla control light: higher = more constitutive control signal (cell number, transfection)
Active means: 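Hit when the log firefly-to-Renilla ratio dropped or increased by a fixed fold versus the mean of GFP or LacZ controls across duplicate plates; lowering cut given as 1.5 and as 3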
Calls: active = hit: reporter lowered or raised; inactive = no hit
The deposit covers about 24,000 reagents; below is a random part of those with a known target gene and a result. Over the whole deposit, 246 (1%) got an active call. 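Plates not normalised; calls are printed but the firefly/Renilla ratio behind them is not deposited; fold cut for lowering reported inconsistently.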 The raw values are shown without normalisation. A number with no mark means an inactive call. The numbers tell different reagents against one gene apart. A plus sign joins genes that one reagent is predicted to hit. No sequences are given here. The record does not give: the amount of reagent.

Gene	reagent	firefly reporter light, replicate 1	firefly reporter light, replicate 2	Renilla control light, replicate 1	Renilla control light, replicate 2
fs(1)N (female sterile (1) Nasrat)	1	3.82e5	3.91e5	4.70e6	4.10e6
Cad74A (Cadherin 74A)	1	1.79e5	2.50e5	2.23e6	2.55e6
JhI-26 (Juvenile hormone-inducible protein 26)	1	1.08e6	1.39e6	2.14e6	2.54e6
JhI-26 (Juvenile hormone-inducible protein 26)	2	3.31e5	3.42e5	7.83e5	8.25e5
Ufl1 (UFM1 specific ligase 1)	1	70816	1.05e5	6.19e5	5.70e5
CG10713	1	3.60e5	1.98e5	1.62e6	1.11e6
CG10713	2	5.72e5	5.24e5	9.13e5	9.32e5
ADD1 (ADD domain-containing protein 1)	1	7.60e5	1.21e6	1.26e6	1.49e6
ADD1 (ADD domain-containing protein 1)	2	2.08e5	1.79e5	7.46e5	6.83e5
CG34386	1	65762	86868	1.42e6	1.42e6
CG34386	2	5.92e5	6.57e5	1.45e6	1.29e6
CG34386	3	4.47e5	5.09e5	1.09e6	1.09e6
CG6661 + asRNA:CR42871	1	7.42e5	7.71e5	1.66e6	1.58e6
Hel89B (Helicase 89B)	1	4.56e5	3.66e5	4.14e6	3.29e6
Hel89B (Helicase 89B)	2	1.99e6	1.47e6	1.97e6	1.74e6
CG30460	1	1.04e5	1.15e5	2.18e6	2.18e6
CG30460	2	8.13e5	9.61e5	1.54e6	1.97e6
CG3589	1	8.16e5	6.01e5	1.47e6	1.24e6
CG3589	2	7.45e5	4.02e5	8.93e5	4.29e5
CG1371	1	7.82e5	6.20e5	1.15e6	1.27e6
CG9775	1	95012	69852	8.88e5	7.55e5
CG9775	2	1.53e5	1.76e5	1.13e6	7.00e5
PVRAP (PVR adaptor protein)	1	1.12e5	1.33e5	1.24e6	1.54e6
CG42850 (retired record)	1	5.75e5	4.33e5	3.14e6	3.56e6

2 entries from above, sorted by “firefly reporter light, replicate 2”, highest first.
Gene	reagent	firefly reporter light, replicate 1	firefly reporter light, replicate 2	Renilla control light, replicate 1	Renilla control light, replicate 2
Hel89B (Helicase 89B)	2	1.99e6	1.47e6	1.97e6	1.74e6
Hel89B (Helicase 89B)	1	4.56e5	3.66e5	4.14e6	3.29e6
